Data source: PubChem BioAssay AID504786 (Drosophila RNAi Screening Center, 2011)

Test: 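Knock-downs reducing HIF reporter induction by the iron chelator DFO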 (primary screen)
Cell system: Drosophila S2 cells with a stable HIF luciferase reporter
Reagents: long dsRNA against Drosophila genes, about 0.2 µg dsRNA per well of a 384-well plate
Time to read-out: three days of knock-down, then 20 h of DFO before reading
Challenge: desferrioxamine (DFO) at 100 µM, an iron chelator that mimics hypoxia, for 20 h
Read-out: 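Firefly luciferase driven by the mouse ldh-a hypoxia-response element, measured after 20 h of 100 µM DFO; z-scores per plate, higher means more signal lost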
Reading the numbers: z-score: higher = stronger loss of HIF reporter signal
The screen tested about 21,000 reagents; below is an unselected part of those that have a named target and a result. 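Primary screen; positive scores mean lost reporter signal, so the sign may be inverted from the usual convention.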 Reagents against one gene are numbered here. Names joined by + are all predicted targets of the reagent. Reagent sequences are not shown.

| gene knocked down | reagent no. | z-score, replicate 1 | z-score, replicate 2 | z-score, replicate 3 | z-score, replicate 4 |
| --- | --- | --- | --- | --- | --- |
| Hsp70Bc (Heat shock protein 70 Bc) | 1 | -0.1 | -0.2 | – | – |
| CG14435 | 1 | 0.4 | -0.4 | – | – |
| Syx17 (Syntaxin 17) | 1 | -0.2 | -0.6 | – | – |
| Rab14 | 1 | -0.2 | 0 | – | – |
| bsk (basket) | 1 | -0.3 | -0.8 | – | – |
| CG42780 | 1 | -0.3 | -0.2 | – | – |
| CG13426 | 1 | -0.2 | 0.1 | – | – |
| Ir20a (Ionotropic receptor 20a) | 1 | -0.5 | -0.2 | – | – |
| salm (spalt major) | 1 | -0.2 | -0.1 | – | – |
| CG11970 | 1 | -0.5 | -0.6 | – | – |
| CR30374 (pseudo) | 1 | -0.3 | -0.2 | – | – |
| Yip1d1 (Yip1 domain-containing 1) | 1 | -0.1 | -0.4 | – | – |
| CG8320 + ATPCL | 1 | -0.4 | -0.6 | – | – |
| CG31826 | 1 | -0.4 | -0.1 | – | – |
| Cpr30B (Cuticular protein 30B) | 1 | -0.4 | -0.2 | – | – |
| CG30116 | 1 | -0.2 | -0.4 | – | – |
| CG30116 | 2 | -0.2 | -0.4 | – | – |
| CG32633 | 1 | -0.2 | -0.2 | – | – |
| Hsp23 (Heat shock protein 23) | 1 | -0.4 | -0.5 | – | – |
| CG43773 | 1 | 0.5 | 0.6 | – | – |
| CG43773 | 2 | -0.3 | -0.5 | – | – |
| Hacd2 (3-hydroxyacyl-CoA dehydratase 2) | 1 | -0.3 | 0.1 | – | – |
| Cdc2rk (Cdc2-related kinase) | 1 | 0 | 0.2 | – | – |
| how (held out wings) | 1 | 1.8 | 1.1 | – | – |
| akirin | 1 | 3.3 | 3.1 | – | – |
| gzl (godzilla E3 ubiquitin protein ligase) | 1 | -0.4 | -0.5 | – | – |
| Alg2 (ALG2, alpha-1,3/1,6-mannosyltransferase) | 1 | -0.2 | 0.1 | – | – |
| CG34428 | 1 | -0.1 | -0.2 | – | – |
| Caf1-55 (Chromatin assembly factor 1, p55 subunit) | 1 | -0.5 | -1.1 | – | – |
| CG9784 | 1 | -0.4 | 0.5 | – | – |
| CG31534 (retired record) | 1 | -0.2 | -0.2 | – | – |
| CG31534 (retired record) | 2 | -0.2 | -0.6 | – | – |
| tei (teiresias) | 1 | 0.1 | -0.2 | – | – |
| gskt (gasket) | 1 | -0.4 | -0.5 | – | – |
| CG32107 | 1 | 0 | -0.3 | – | – |
| Obp58d (Odorant-binding protein 58d) | 1 | -0.2 | 0 | – | – |
| CG9777 | 1 | -0.2 | 3 | – | – |
| Or22c (Odorant receptor 22c) | 1 | -0.2 | -0.3 | – | – |
| CG15617 | 1 | -0.3 | -0.1 | – | – |
| pHCl-1 (pH-sensitive chloride channel 1) | 1 | -0.9 | -0.8 | – | – |
| pHCl-1 (pH-sensitive chloride channel 1) | 2 | -0.1 | 0.1 | – | – |
| pHCl-1 (pH-sensitive chloride channel 1) | 3 | -0.3 | -0.4 | – | – |
| CG13069 | 1 | -0.3 | 0.4 | – | – |
| RpS24 (Ribosomal protein S24) | 1 | 1.4 | 5.9 | – | – |
| IntS3 (Integrator 3) | 1 | 0.3 | 0.5 | – | – |
| CG15084 | 1 | -0.1 | 0 | -0.6 | -0.3 |
| Abcd1 (ATP binding cassette subfamily D member 1) | 1 | -0.1 | -0.3 | – | – |

Targets above whose gene name starts with R or r:
| gene knocked down | reagent no. | z-score, replicate 1 | z-score, replicate 2 | z-score, replicate 3 | z-score, replicate 4 |
| --- | --- | --- | --- | --- | --- |
| Rab14 | 1 | -0.2 | 0 | – | – |
| RpS24 (Ribosomal protein S24) | 1 | 1.4 | 5.9 | – | – |

Further records:
| gene knocked down | reagent no. | z-score, replicate 1 | z-score, replicate 2 | z-score, replicate 3 | z-score, replicate 4 |
| --- | --- | --- | --- | --- | --- |
| CG17349 | 1 | -0.2 | -0.2 | – | – |
| CG15638 | 1 | -0.4 | -0.1 | – | – |
| eIF3g1 (eukaryotic translation initiation factor 3 subunit g1) | 1 | 6.4 | 5.5 | – | – |
| CG10934 | 1 | -0.3 | -0.1 | – | – |
| asp (abnormal spindle) | 1 | -0.2 | -0.2 | – | – |
| Gad1 (Glutamic acid decarboxylase 1) | 1 | -0.1 | 1.2 | – | – |
| Su(var)3-3 (Suppressor of variegation 3-3) | 1 | -0.2 | 0.1 | – | – |
| CG15344 (retired record) | 1 | -0.3 | -0.7 | – | – |
| VAChT + ChAT | 1 | -0.3 | 0.4 | – | – |
| nop5 | 1 | 0.6 | 2.6 | – | – |
| CG15877 | 1 | -0.1 | -0.4 | – | – |
| CG33310 | 1 | -0.2 | -0.5 | – | – |
| CG4610 | 1 | -0.4 | -0.6 | – | – |
| pre-mod(mdg4)-W + pre-mod(mdg4)-Y + mod(mdg4) + 3 more | 1 | -0.4 | 0.1 | – | – |
| LRR (Leucine-rich repeat) | 1 | -0.2 | -0.3 | – | – |
| dpr11 (defective proboscis extension response 11) | 1 | -0.2 | 0.3 | – | – |
| dpr11 (defective proboscis extension response 11) | 2 | -0.5 | -0.4 | – | – |
| dpr11 (defective proboscis extension response 11) | 3 | -0.4 | -0.3 | – | – |
| CG31637 | 1 | -0.3 | -0.1 | – | – |
| CG31637 | 2 | -0.2 | -0.3 | – | – |
| CG32204 | 1 | 0.5 | -0.3 | – | – |
| Act5C (Actin 5C) | 1 | 0.6 | 0.1 | – | – |
| CG12432 (retired record) | 1 | -0.6 | -0.1 | – | – |
| CCHa1-R (CCHamide-1 receptor) | 1 | -0.1 | -0.3 | – | – |
| CCHa1-R (CCHamide-1 receptor) | 2 | -0.3 | 0 | – | – |
| mRpS17 (mitochondrial ribosomal protein S17) | 1 | 1 | 1.2 | – | – |
| CG43737 | 1 | -0.1 | -0.1 | – | – |
| CG7341 | 1 | -0.3 | -0.5 | – | – |
| CG14427 | 1 | -0.1 | -0.2 | – | – |
| CG1575 | 1 | -0.3 | 0.8 | – | – |
| Gk1 (Glycerol kinase 1) | 1 | -0.3 | -0.4 | – | – |
| Gk1 (Glycerol kinase 1) | 2 | -0.3 | 0 | – | – |
| Srrm1 (Serine-arginine repetitive matrix 1) | 1 | -0.3 | -0.5 | – | – |
| RpL14 (Ribosomal protein L14) | 1 | 8.2 | 6 | – | – |
| Nup37 (Nucleoporin 37kD) | 1 | -0.4 | -0.6 | – | – |
| CG1463 | 1 | -0.1 | 0 | – | – |
| CG3402 | 1 | -0.2 | -0.1 | – | – |
| DIP1 (DISCO Interacting Protein 1) | 1 | 0 | -0.2 | – | – |
| PAN3 (Poly(A) specific ribonuclease subunit PAN3) | 1 | -0.4 | -0.7 | – | – |
| alpha-Est5 (alpha-Esterase-5) | 1 | -0.3 | -0.4 | – | – |
| CG9304 | 1 | -0.4 | -0.7 | – | – |
| Cow | 1 | 0.5 | -0.5 | – | – |
| Cow | 2 | -0.3 | -0.2 | – | – |
| CG31816 | 1 | 0.5 | 0.5 | – | – |
| fu (fused) | 1 | 0 | 2.1 | – | – |
| CG1136 | 1 | -0.3 | -0.6 | – | – |
| CG34273 | 1 | -0.2 | -0.3 | – | – |
| CG6867 | 1 | -0.4 | -0.3 | – | – |
| Rhau (RHAU helicase) | 1 | -0.2 | 0 | – | – |
| GstE6 (Glutathione S transferase E6) | 1 | -0.3 | -0.5 | – | – |
| CG3847 | 1 | -0.2 | -0.2 | – | – |
| CG3847 | 2 | 1.4 | 0 | – | – |
| Taz (Tafazzin) | 1 | -0.4 | -0.2 | -0.8 | -0.3 |
| Tbce (Tubulin-binding cofactor E) | 1 | -0.1 | -0.2 | – | – |
| Mlc1 (Myosin alkali light chain 1) | 1 | -0.4 | -0.4 | – | – |
| Camp (Cathelicidin-like antimicrobial protein) | 1 | -0.4 | -0.7 | – | – |
| Plzf (Promyelocytic leukemia zinc finger) | 1 | -0.4 | -0.7 | – | – |
| se (sepia) | 1 | -0.3 | -0.2 | – | – |
| pan (pangolin) | 1 | -0.3 | -0.2 | – | – |
